Values from PubChem BioAssay AID743121 (NCATS, 2013).
The deposit covers about 26,000 reagents; below is an unselected part. In the full data, 167 (0.63%) were called active. 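Calls are per gene from RSA p-values that are not deposited; an individual active-marked siRNA can sensitise only weakly.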 Reagents against one gene are numbered here. Not all columns of the deposit are shown. Reagent sequences are not shown.

- Purpose: 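Partners whose loss is lethal together with topoisomerase I blockade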 (primary screen)
- Cell system: MDA-MB-231 cells, a human breast cancer line
- Reagent: single siRNA against human genes, 20 nM siRNA (0.8 pmol per well)
- Timing: 120 h (drug added 48 h after transfection, read 72 h later)
- Conditions: camptothecin 20 nM (about EC30) for 72 h; vehicle 0.1% DMSO in parallel plates
- Read-out: 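CellTiter-Glo ATP signal, scaled to control siRNA as percent viability; sensitisation given as log2 of untreated divided by camptothecin-treated viability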
- Reading the numbers: log2 vehicle/camptothecin viability: higher = stronger sensitisation to camptothecin; viability with camptothecin: higher = more viable cells
- Units: viability with camptothecin in % of control
- Hit rule: 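Each gene scored by redundant siRNA activity (RSA) over its individual siRNA ratios; a gene is called active at p < 0.001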

With knock-down of OR5F1 #1, the screen gave log2 vehicle/camptothecin viability -0.534; viability with camptothecin 82.3; inactive. For OR5F1 #2, the entry reads log2 vehicle/camptothecin viability -0.27; viability with camptothecin 49.9; inactive. OR5F1 #3 showed log2 vehicle/camptothecin viability -0.333; viability with camptothecin 115; inactive. With knock-down of OR5F1 #4 the results were log2 vehicle/camptothecin viability -0.485; viability with camptothecin 84.5; inactive. With knock-down of TMEM87B #1, the record shows log2 vehicle/camptothecin viability -0.185; viability with camptothecin 97.1; inactive. After knock-down of TMEM87B #2, the screen gave log2 vehicle/camptothecin viability -0.202; viability with camptothecin 74.1; inactive.

After knock-down of TMEM87B #3 the results were log2 vehicle/camptothecin viability -0.268; viability with camptothecin 103; inactive. FZD3 #1 scored log2 vehicle/camptothecin viability -0.103; viability with camptothecin 81.4; inactive. Silencing of FZD3 #2 gave: log2 vehicle/camptothecin viability 0.384; viability with camptothecin 59.4; inactive. Knock-down of FZD3 #3 gave: log2 vehicle/camptothecin viability -0.118; viability with camptothecin 90.1; inactive. Knock-down of FZD3 #4 came out at: log2 vehicle/camptothecin viability -0.724; viability with camptothecin 10; inactive. Against CCL13 #1, the values are log2 vehicle/camptothecin viability -0.495; viability with camptothecin 114; inactive.

Depletion of CCL13 #2 resulted in: log2 vehicle/camptothecin viability -0.198; viability with camptothecin 40.4; inactive. Depletion of CCL13 #3 came out at: log2 vehicle/camptothecin viability 0.264; viability with camptothecin 79.6; inactive. Depletion of CCL13 #4 gave: log2 vehicle/camptothecin viability -0.232; viability with camptothecin 110; inactive. PLAT #1 gave log2 vehicle/camptothecin viability -0.132; viability with camptothecin 80.6; inactive. Against PLAT #2, the values are log2 vehicle/camptothecin viability 0.228; viability with camptothecin 42.4; inactive. PLAT #3 showed log2 vehicle/camptothecin viability -0.209; viability with camptothecin 85.5; inactive.

For PLAT #4, the values are log2 vehicle/camptothecin viability -0.0722; viability with camptothecin 82.3; inactive. With knock-down of BMP7 #1 the results were log2 vehicle/camptothecin viability -0.308; viability with camptothecin 47.5; inactive. For BMP7 #2, the entry reads log2 vehicle/camptothecin viability 0.393; viability with camptothecin 76.6; inactive. After knock-down of BMP7 #3, the record shows log2 vehicle/camptothecin viability 0.266; viability with camptothecin 20; inactive. Knock-down of BMP7 #4 gave: log2 vehicle/camptothecin viability -0.185; viability with camptothecin 91.2; inactive. For OR2D2 #1 the deposit lists log2 vehicle/camptothecin viability -0.162; viability with camptothecin 60.8; inactive.

Silencing of OR2D2 #2 resulted in: log2 vehicle/camptothecin viability 0.257; viability with camptothecin 95.5; inactive. OR2D2 #3 showed log2 vehicle/camptothecin viability -0.0706; viability with camptothecin 83.4; inactive. OR2D2 #4 scored log2 vehicle/camptothecin viability 0.0913; viability with camptothecin 63.8; inactive.

Not a retest: entries from further up.
TMEM87B #3 → log2 vehicle/camptothecin viability: -0.268; viability with camptothecin: 103; activity call: inactive
FZD3 #1 → log2 vehicle/camptothecin viability: -0.103; viability with camptothecin: 81.4; activity call: inactive
FZD3 #2 → log2 vehicle/camptothecin viability: 0.384; viability with camptothecin: 59.4; activity call: inactive
FZD3 #3 → log2 vehicle/camptothecin viability: -0.118; viability with camptothecin: 90.1; activity call: inactive
